From publication doi:10.1101/2020.02.14.950204 come the findings set out here.

The target in experiment [1] is T1, BRCA2 and MEILB2-associated protein1 (BRME1) (mouse (endogenous in testis)), Q6DIA7.
T1 chain: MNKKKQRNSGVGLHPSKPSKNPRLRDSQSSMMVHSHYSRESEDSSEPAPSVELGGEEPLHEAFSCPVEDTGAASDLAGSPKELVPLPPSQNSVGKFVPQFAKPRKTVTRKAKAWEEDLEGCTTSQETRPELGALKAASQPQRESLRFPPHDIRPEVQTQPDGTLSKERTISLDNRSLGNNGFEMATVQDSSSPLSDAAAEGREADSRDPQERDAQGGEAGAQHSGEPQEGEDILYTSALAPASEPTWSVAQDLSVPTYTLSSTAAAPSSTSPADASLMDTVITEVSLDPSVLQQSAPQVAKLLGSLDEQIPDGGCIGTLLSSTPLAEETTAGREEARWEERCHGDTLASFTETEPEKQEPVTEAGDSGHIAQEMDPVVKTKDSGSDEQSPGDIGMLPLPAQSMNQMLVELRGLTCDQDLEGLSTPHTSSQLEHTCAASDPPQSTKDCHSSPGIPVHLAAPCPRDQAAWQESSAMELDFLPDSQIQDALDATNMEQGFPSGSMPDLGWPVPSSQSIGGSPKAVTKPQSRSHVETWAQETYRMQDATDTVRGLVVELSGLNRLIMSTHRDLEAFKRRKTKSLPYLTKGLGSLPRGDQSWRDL
Nature of the experiment: co-IP. Conditions: remark: other sources report otherwise.

Experiment [2] addresses T2, BRCA2 and MEILB2-associated protein1 (BRME1) (mouse (endogenous in testis)) (UniProt Q6DIA7).
T2 sequence: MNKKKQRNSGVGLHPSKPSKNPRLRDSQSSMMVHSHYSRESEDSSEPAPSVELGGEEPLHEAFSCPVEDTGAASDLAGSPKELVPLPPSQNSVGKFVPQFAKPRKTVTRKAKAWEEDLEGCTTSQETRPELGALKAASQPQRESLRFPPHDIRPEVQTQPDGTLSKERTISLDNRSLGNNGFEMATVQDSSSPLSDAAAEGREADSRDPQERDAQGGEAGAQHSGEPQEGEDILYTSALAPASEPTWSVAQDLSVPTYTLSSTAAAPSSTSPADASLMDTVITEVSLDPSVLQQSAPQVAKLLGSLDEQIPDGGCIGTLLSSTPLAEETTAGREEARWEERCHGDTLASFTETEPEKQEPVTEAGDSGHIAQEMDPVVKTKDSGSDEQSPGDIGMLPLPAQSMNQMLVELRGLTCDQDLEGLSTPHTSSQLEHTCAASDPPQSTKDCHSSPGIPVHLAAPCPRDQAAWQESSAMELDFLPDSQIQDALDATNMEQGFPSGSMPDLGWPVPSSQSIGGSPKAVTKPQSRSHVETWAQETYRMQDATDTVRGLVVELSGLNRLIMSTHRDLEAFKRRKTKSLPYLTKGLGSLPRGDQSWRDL
Nature of the experiment: co-IP.

These are yes or no findings as the source states them, for the method shown. Binding seen in cells or lysates may run through a third protein. Some results given as binding are weak or reduced against the parent protein; the word gives no strength.

B1: RPA1, Q8VEE4 1-623 (protein)
chain: MVGHLSEGAIEVMIQQENTSIKPILQVINIRPISTGNRSPRYRLLMSDGLNTLSSFMLATQLNTLVEGGQLASNCVCQVHKFIVNTLKDGRKVVVLMDLEVMKSAEDVGLKIGNPVPYNEGYGQQQQQQQQQQQQAVPSPASAATPPASKPQPQNGSLGMGSTAAKAYGASKPFGKPAGTGLLQPSGGTQSKVVPIASLTPYQSKWTICARVTNKSQIRTWSNSRGEGKLFSLELVDESGEIRATAFNEQVDKFFPLIEVNKVYYFSKGALKIANKQFSAVKNDYEMTFNNETSVLPCEDGHHLPTVQFDFTGIGDLESKAKDALVDIIGICKSYEDSIKITVKSNNREVAKRNIYLMDMSGKVVTTTLWGEDADKFDGSRQPVMAIKGARVSDFGGRSLSVLSSSTVIVNPDIPEAYKLRGWFDSEGQALDGVSISDHRSGGAGGGNTNWKTLHEAKSENLGQGDKADYFSTVAAVVFLRKENCMYQACPTQDCNKKVIDQQNGLYRCEKCDREFPNFKYRMILSANIADFQENQWVTCFQESAEAILGQNTMYLGELKEKNEQAFEEVFQNANFRSFTFRIRVKLETYNDESRIKATVMDVKPVDFRDYGRRLIANIRKNM
Take B1: the binding entry in experiment [1] was “binds”.

B2: MEIOB, Q9D513 1-470 (protein)
chain: MAKFFALKNFTALSDLHPNMANLKIIGIVIGKTDVKGFPDRKNIGSERYTFSFTIRDSPCHFVNVSSWGSEDYIRSLSESFRVAECVIIENPLIQRKDTEREEKFSPATPSNYKLLLSENHSMVKVCSPYEVDTKLLSLIHLPVKESRDYYSLADIVANGHSLDGRIINVLAAVRSVGEPKYFTTSDRRKGQRCEVKLFDETEPSFTMTCWDNESILLAQSWMARETVIFASDVRINFNKFQNCMAATVISKTIITVNPDTPEANILLNYIRENKETNVADEIDSYLKESVNLNTIVDVYTVEQLKVKALKSEGKADPFYGILYAYISTLNIDDETTKVVRNRCSSCGYIVNEASNTCTICNQDSSRLKSFFLSFDVLVDLTDHTGTLHSCSLSGSIAEETLGCTINEFLTMTSEQKTKLKWQLLLERSKIYLKLILSHRARGGLKVTILSCKLADPTEASRNLARQGHT
As for B2, in experiment [1], the binding entry was “binds”.

B3: MEILB2/HSF2BP (protein, UniProt Q9D4G2 1-338)
chain: MAATVGDGSGTEEACRNMESKEEFVKVRKKDLERLTTEVMQIRDFLPRILNGELLESFQKLKMVEKNLERKEQELEQLIMDREHFKARLETAQADSGREKKEKLALRQQLNEAKQQLLQQAEYCTQMGAVTCTLLWGVSSSEEVVKTILGGDKALKFFNITGQTMESFVKSLDGDVKEVDSDENQFVFALAGIVTNVAAIACGREFLVNSSRVLLDTMLQLLGDLKPGQCTKLKVLMLMSLYNVSINSKGLKYITESPGFIPLLWWLLSDPDAEVCLHTLRLIQSVVLEPDVFSKVASELQSSLPLQRILAMSKSRNSHLQSAAQELLEDLRALDCNV
Turning to B3, the binding result in experiment [2] is given as “binds”.
